This assay deals with T1, Neuronal pentraxin 1, endogenous in mouse cortical synaptosomes (mouse (endogenous in cortical synaptosomes)) (UniProt Q62443).
T1 sequence: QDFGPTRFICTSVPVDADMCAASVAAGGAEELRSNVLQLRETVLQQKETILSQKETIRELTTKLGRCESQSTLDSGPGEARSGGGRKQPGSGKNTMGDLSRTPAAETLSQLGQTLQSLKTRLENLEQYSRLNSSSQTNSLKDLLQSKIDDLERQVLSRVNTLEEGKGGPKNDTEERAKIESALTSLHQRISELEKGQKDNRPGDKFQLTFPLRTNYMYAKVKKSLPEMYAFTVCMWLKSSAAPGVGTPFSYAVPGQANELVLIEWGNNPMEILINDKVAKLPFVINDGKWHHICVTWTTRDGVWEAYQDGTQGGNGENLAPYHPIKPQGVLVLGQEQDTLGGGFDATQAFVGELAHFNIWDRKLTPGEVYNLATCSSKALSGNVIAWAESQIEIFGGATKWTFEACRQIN
The assay is described as follows: affinity purification with mass spectrometry; co-immunoprecipitation from mouse cortical synaptosome lysate (TBS, 1% Triton X-100, 1 mM CaCl2, 1 mM MgCl2, 4 °C) with anti-NP1 or anti-C1qA antibody and Protein A/G Sepharose beads; whole gel lanes identified by HPLC-MS/MS; isotype control antibodies.

By UniProt entry, the sequences of proteins in these tests, tags left out. Residues count along the entry.
UniProt Q9QYS2, residues 23-879: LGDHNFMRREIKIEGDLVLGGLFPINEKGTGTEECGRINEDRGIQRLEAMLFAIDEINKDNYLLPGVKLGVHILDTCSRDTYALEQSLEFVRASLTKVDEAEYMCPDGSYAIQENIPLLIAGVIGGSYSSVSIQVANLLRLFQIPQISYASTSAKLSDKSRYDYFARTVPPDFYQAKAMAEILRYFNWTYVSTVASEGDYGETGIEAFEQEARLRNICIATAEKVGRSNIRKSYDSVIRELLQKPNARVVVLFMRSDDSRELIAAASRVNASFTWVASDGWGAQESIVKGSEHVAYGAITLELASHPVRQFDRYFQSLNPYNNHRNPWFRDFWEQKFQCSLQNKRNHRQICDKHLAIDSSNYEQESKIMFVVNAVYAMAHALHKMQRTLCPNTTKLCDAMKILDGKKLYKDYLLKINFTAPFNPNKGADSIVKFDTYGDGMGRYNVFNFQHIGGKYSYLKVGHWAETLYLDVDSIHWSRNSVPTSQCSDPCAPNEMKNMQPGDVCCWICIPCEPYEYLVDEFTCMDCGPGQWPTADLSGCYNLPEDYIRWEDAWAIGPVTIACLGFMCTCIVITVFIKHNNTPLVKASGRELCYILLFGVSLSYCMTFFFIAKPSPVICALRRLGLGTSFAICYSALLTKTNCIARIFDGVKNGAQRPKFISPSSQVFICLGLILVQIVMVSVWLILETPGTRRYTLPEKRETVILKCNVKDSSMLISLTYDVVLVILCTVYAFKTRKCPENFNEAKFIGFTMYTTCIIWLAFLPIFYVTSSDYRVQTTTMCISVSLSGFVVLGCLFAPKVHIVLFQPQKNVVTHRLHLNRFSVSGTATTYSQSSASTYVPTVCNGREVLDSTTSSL

From PMC7897678 (Frontiers in Immunology, 2020) come the findings set out here.

No constants are given. Whether binding was seen depends on the method and setting. Binding seen in cells or lysates may run through a third protein. A yes stands for co-enrichment or nearness to the bait. Other partners may have been found.

On to “Glutamate receptor Grm3, endogenous in mouse cortical synaptosomes (from UniProt Q9QYS2 23-879)”, for which the binding result is reported as “binds”.

B1: Neuronal pentraxin 2, endogenous in mouse cortical synaptosomes (protein, UniProt O70340 15-429)
chain: AGRAQDSPIPGSRFVCTALPPEAARAGCPLPAMPMQGGALSPEEELRAAVLQLRETVVQQKETLGAQREAIRELTGKLARCEGLAGGKARGTGKDTMGDLPRDPGHVVEQLSRSLQTLKDRLESLELQLRTNVSNAGLPSDFREVLQRRLGELERQLLRKVAELEDEKSLLHNETSAHRQKTESTLNALLQRVTELERGNSAFKSPDAFKVSLPLRTNYLYGKIKKTLPELYAFTICLWLRSSASPGIGTPFSYAVPGQANEIVLIEWGNNPIELLINDKVAQLPLFVSDGKWHHICITWTTRDGMWEAFQDGEKLGTGENLAPWHPIKPGGVLILGQEQDTVGGRFDATQAFVGELSQFNIWDRVLRAQEIINIANCSTNMPGNIIPWVDNNVDVFGGASKWPVETCEERLLDL
In the case of B1, the binding entry is given as “binds”.

B2: Neuronal pentraxin receptor, endogenous in mouse cortical synaptosomes (receptor, UniProt Q99J85 1-493)
chain: MKFLAVLLAAGMLAFLGAVICIIASVPLAASPARALPGGTDNASAASAAGGSGPQRSLSALHSAGGSAGPSVLPGEPAASVFPPPPVPLLSRFLCTPLAAACPSGAEQGDAAGERAELLLLQSTAEQLRQTALQQEARIRADRDTIRELTGKLGRCESGLPRGLQDAGPRRDTMADGAWDSPALLLELEDAVRALRDRIERIEQELPARGNLSSAPAPAMPTALHSKMDELECQLLAKVLALEKERAALSHGSHQQRQEVEKELNALQGRVAELEHGSSAYSPPDAFKVSIPIRNNYMYARVRKALPELYAFTACMCVRSRSGGSGQGTPFSYSVPGQANEIVLLEAGLEPMELLINDKVAQLPLSLKDSNWHHICISWTTRDGLWSAYQDGELRGSGENLAAWHPIKPHGILILGQEQDTLGGRFDATQAFVGDIAQFNLWDHALTPAQVLGMANCTGPLMGNVLPWEDKLVEAFGGAKKAAFDVCKGRAKA
As for B2, the binding entry is recorded as “binds”.
